The inconclusive results got no clear call from the source; some entries with a clear call stand among them for comparison. Potencies beside an inconclusive call are fits to weak or partial responses and may not hold up. Calls of active or inactive are those of the source. The calls were made as follows: active = hit-call score of the fitted dose curve at least 0.9, where 1 is the maximum; inconclusive = response in the unintended direction; inactive = score below 0.9.
target: mouse Estrogen Receptor alpha (Era), Esr1 (gene 13982) (UniProt P19785); assay: NVS_NR_mERa: NovaScreen (NVS) Nuclear Receptor Binding Assay for mouse Estrogen Receptor alpha (Era) (AID 2283378);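 also: hit means loss of bound radioligand signal relative to DMSO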
In short: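 Cell-free radioligand binding with extracted mouse Era protein; competitive displacement of radiolabelled ligand, read by filter-based scintillation counting 18 hours after dosing. Loss of signal versus DMSO baseline taken as binding; single screening concentration 25 uM, actives followed in concentration series.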

The chains behind the UniProt entries cited, without tags or fusion partners. Where a name states a change or a piece, a line headed by the entry shows the natural chain unless it says otherwise.
UniProt P19785, whole entry, looked up: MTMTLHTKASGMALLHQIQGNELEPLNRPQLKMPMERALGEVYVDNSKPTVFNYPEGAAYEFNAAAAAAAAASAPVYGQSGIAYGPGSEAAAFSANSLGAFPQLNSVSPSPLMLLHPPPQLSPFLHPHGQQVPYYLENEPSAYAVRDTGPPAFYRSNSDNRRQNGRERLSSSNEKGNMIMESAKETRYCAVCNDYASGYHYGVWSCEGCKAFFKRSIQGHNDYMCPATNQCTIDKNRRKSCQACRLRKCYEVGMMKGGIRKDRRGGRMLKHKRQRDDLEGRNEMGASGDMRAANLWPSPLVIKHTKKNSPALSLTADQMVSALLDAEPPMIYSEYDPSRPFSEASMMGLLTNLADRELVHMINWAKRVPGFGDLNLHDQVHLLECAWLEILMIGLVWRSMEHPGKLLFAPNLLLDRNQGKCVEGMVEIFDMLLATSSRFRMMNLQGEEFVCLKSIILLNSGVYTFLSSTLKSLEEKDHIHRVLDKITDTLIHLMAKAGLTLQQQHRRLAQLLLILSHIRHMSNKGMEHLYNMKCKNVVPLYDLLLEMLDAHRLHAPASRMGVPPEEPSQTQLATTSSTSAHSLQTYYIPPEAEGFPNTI
UniProt P10275: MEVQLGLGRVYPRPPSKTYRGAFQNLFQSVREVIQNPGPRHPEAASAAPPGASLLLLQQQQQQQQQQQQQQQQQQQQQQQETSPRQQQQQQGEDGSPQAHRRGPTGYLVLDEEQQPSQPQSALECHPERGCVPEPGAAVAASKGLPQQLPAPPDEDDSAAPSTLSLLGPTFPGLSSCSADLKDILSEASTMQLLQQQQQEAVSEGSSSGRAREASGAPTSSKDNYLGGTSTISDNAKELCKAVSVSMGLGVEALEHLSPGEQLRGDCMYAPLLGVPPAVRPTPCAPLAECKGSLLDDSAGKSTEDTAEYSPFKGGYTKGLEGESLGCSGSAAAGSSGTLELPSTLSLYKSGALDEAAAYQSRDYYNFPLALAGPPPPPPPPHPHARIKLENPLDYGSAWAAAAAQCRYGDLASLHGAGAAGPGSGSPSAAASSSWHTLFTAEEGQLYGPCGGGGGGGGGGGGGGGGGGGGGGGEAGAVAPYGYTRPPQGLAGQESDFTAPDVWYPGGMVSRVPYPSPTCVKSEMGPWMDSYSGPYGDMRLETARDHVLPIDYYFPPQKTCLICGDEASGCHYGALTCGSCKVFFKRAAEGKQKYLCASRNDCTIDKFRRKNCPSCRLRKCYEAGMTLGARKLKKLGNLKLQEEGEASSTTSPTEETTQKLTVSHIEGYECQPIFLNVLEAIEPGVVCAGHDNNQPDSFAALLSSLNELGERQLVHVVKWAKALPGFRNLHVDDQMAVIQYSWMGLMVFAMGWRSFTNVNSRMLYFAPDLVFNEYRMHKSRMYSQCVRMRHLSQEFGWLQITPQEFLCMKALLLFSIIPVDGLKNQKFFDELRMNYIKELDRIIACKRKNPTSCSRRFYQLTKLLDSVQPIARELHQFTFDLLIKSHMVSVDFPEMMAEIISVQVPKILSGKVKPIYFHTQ
UniProt Q96RI1: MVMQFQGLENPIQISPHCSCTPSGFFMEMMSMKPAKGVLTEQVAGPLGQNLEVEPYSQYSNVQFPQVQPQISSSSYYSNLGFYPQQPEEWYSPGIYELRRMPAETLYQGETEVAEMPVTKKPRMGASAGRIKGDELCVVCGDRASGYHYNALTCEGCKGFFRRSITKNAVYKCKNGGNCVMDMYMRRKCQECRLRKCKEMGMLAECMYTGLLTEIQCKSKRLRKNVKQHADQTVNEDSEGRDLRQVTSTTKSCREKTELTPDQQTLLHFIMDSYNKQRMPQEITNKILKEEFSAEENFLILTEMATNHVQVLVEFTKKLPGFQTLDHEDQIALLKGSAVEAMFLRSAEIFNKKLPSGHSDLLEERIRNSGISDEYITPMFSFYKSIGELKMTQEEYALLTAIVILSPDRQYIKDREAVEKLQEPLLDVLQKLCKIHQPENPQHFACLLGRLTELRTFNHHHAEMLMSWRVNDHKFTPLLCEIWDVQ

AC50, inconclusive:
c1ccc(OCCOc2ccccc2)cc1 7.93 µM
O=C(Nc1cccc(C(F)(F)F)c1)c1cc(Br)cc(Br)c1O 25 µM
CC1=C(/C=C/C(C)=C/C=C/C(C)=C/C(=O)O)C(C)(C)CCC1 5.09 µM
O=C(Nc1cccc([N+](=O)[O-])c1)c1cc2ccccc2cc1O 28.5 µM
COC(=O)C1=C(C)NC(C)=C(C(=O)OCC(C)C)C1c1ccccc1[N+](=O)[O-] (stereo not given) 25 µM
CC(=O)NS(=O)(=O)c1ccc(N)cc1 40.7 µM
CN(C)c1ccc(O)c2c1C[C@H]1C[C@H]3[C@H](N(C)C)C(=O)C(C(N)=O)=C(O)[C@@]3(O)C(=O)C1=C2O 25 µM
COc1ccc2c(c1)c(CC(=O)O)c(C)n2C(=O)c1ccc(Cl)cc1 25 µM
CCCCOC(=O)C(C)O (stereo not given) 25 µM
COC1=CC(=O)C[C@@H](C)[C@]12Oc1c(Cl)c(OC)cc(OC)c1C2=O 25 µM
c1ccc(CNc2ncnc3c2ncn3C2CCCCO2)cc1 (stereo not given) 0.0307 µM
OB(O)O 25 µM
CN(C)Cc1cc(CN(C)C)c(O)c(CN(C)C)c1 2.54 µM

AC50, active:
O=C(c1ccc(O)cc1)c1ccc(O)cc1O 1.29 µM
Oc1ccc(Oc2ccccc2)cc1 8.86 µM
C[C@]12CC[C@@H]3c4ccc(O)cc4CC[C@H]3[C@@H]1CC[C@@H]2OC(=O)CCC1CCCC1 0.0452 µM
CCCCCCCCCOS(=O)(=O)O 12.7 µM
CCCCCCOc1ccc(O)cc1 0.174 µM
OC[C@H]1O[C@@H]2O[C@H]3[C@H](O)[C@@H](O)[C@@H](O[C@H]4[C@H](O)[C@@H](O)[C@@H](O[C@H]5[C@H](O)[C@@H](O)[C@@H](O[C@H]6[C@H](O)[C@@H](O)[C@@H](O[C@H]7[C@H](O)[C@@H](O)[C@@H](O[C@H]1[C@H](O)[C@H]2O)O[C@@H]7CO)O[C@@H]6CO)O[C@@H]5CO)O[C@@H]4CO)O[C@@H]3CO 10.3 µM

Arranged by molecular weight (rising): three of the compounds above.
AC50, active:
CCCCCCOc1ccc(O)cc1 0.174 µM
C[C@]12CC[C@@H]3c4ccc(O)cc4CC[C@H]3[C@@H]1CC[C@@H]2OC(=O)CCC1CCCC1 0.0452 µM
OC[C@H]1O[C@@H]2O[C@H]3[C@H](O)[C@@H](O)[C@@H](O[C@H]4[C@H](O)[C@@H](O)[C@@H](O[C@H]5[C@H](O)[C@@H](O)[C@@H](O[C@H]6[C@H](O)[C@@H](O)[C@@H](O[C@H]7[C@H](O)[C@@H](O)[C@@H](O[C@H]1[C@H](O)[C@H]2O)O[C@@H]7CO)O[C@@H]6CO)O[C@@H]5CO)O[C@@H]4CO)O[C@@H]3CO 10.3 µM

Following part:

outcome, inactive:
CCCCCCCCCCCCCC[n+]1ccccc1
CCc1cccc(O)c1
COS(C)(=O)=O
CCCCCCCCCCCCN1CCCC1=O
CN[C@H]1CC[C@@H](c2ccc(Cl)c(Cl)c2)c2ccc(S(N)(=O)=O)cc21
OC1CCCCC1
CCCCCCC(=O)OCC
Cc1cccc(N(C)C(=S)Oc2ccc3ccccc3c2)c1
COc1ccccc1O

target: Agonist Androgen Response Element (ARE), AR (gene 367) (UniProt P10275); assay: OT_AR_ARELUC_AG_1440: Odyssey Thera (OT) 24-hour CHO-K1 Luciferase Assay for Agonist Androgen Response Element (ARE) (AID 2283379)
In short: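 Seed CHO-K1 cells; dose compounds for 24 h; add D-luciferin plus ATP in PBS; read luminescence. Signal increase relative to vehicle defines agonist activity, with at least 3 replicate wells per sample.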

AC50, active:
OCCC(F)(F)C(F)(F)C(F)(F)C(F)(F)C(F)(F)C(F)(F)C(F)(F)C(F)(F)F 21.8 µM

AC50, inconclusive:
CC(=O)O[C@@H]1CC2CCC1(C)C2(C)C (stereo not given in full) 50 µM
CC(=O)N(C)C 50 µM
Cc1ccc(N(C)C)cc1 50 µM

outcome, inactive:
CC1COC(=O)O1 (stereo not given)
CCSC(=O)N(CC(C)C)CC(C)C

target: Bile acid receptor (Homo sapiens) (UniProt Q96RI1); assay: OT_FXR_FXRSRC1_0480: Odyssey Thera (OT) 8-hour HEK293T Protein-Complementation Assay for Farnesoid X receptor/SRC-1 Co-activator (AID 2283383)
In short: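 HEK293T cells expressing FXR and SRC-1 fused to reporter fragments were dosed with compound for 8 h; fluorescence from the reconstituted reporter marked co-activator recruitment. Gain of signal was fitted against the DMSO baseline.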

outcome, inactive:
CCc1cccc(O)c1
CCc1occc(=O)c1O

AC50, active:
CCCCCCCCCCCCN1CCCC1=O 11.6 µM

AC50, inconclusive:
CN[C@H]1CC[C@@H](c2ccc(Cl)c(Cl)c2)c2ccc(S(N)(=O)=O)cc21 23.2 µM
CN(C)Cc1cc(CN(C)C)c(O)c(CN(C)C)c1 50 µM

target: Bile acid receptor (Homo sapiens) (UniProt Q96RI1); assay: OT_FXR_FXRSRC1_1440: Odyssey Thera (OT) 24-hour HEK293T Protein-Complementation Assay for Farnesoid X receptor/SRC-1 Co-activator (AID 2283384)
In short: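 HEK293T cells were dosed with compound and read 24 h later by fluorescence intensity from protein-fragment complementation reporting FXR/SRC-1 co-activator interaction. Gain of signal was fitted relative to DMSO negative control as baseline.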

AC50, inconclusive:
CC(=O)O[C@@H]1CC2CCC1(C)C2(C)C (stereo not given in full) 50 µM
CCCCOC(=O)C(C)O (stereo not given) 50 µM
CN[C@H]1CC[C@@H](c2ccc(Cl)c(Cl)c2)c2ccc(S(N)(=O)=O)cc21 23.4 µM
COc1ccccc1O 93.5 µM
OB(O)O 50 µM

AC50, active:
CCCCCCCCCCCCN1CCCC1=O 11.2 µM
